This is an account of results in PMC12533322.

This experiment concerns the target T1, Lysosomal integral membrane protein type 2 (LIMP2) (human (endogenous in THP1)) (UniProt Q14108).
T1 sequence: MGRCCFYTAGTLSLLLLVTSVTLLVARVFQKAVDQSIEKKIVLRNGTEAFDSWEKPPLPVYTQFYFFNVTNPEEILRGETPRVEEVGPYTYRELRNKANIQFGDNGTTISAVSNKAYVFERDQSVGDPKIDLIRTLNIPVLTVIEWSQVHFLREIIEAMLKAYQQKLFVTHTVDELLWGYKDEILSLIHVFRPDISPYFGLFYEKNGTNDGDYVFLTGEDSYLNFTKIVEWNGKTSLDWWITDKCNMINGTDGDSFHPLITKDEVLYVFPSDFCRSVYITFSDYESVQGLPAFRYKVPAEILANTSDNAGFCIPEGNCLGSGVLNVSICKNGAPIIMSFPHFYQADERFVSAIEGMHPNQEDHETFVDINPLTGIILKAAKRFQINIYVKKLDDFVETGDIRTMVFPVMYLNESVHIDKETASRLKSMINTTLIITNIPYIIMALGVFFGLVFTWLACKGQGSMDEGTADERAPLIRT
The experiment is described as follows: co-IP; THP1 cells treated without or with LW-213 (5 µM/15 µM) in the presence of BAF-A1 (50 nM) for 6 h; cell lysates incubated overnight at 4 °C with antibodies and protein A/G-conjugated beads; washed three times with RIPA buffer; western blot; the precipitating antibody is not stated. Background: In western blotting, separated proteins are transferred to a membrane and probed.

Results are given in words; binding and its absence hold for the method and conditions named. In cells and extracts the contact can be indirect. Some results given as binding are weak or reduced against the parent protein; the word gives no strength.

B1: TBC1D15 (protein, UniProt Q8TC07 1-691)
chain: MAAAGVVSGKIIYEQEGVYIHSSCGKTNDQDGLISGILRVLEKDAEVIVDWRPLDDALDSSSILYARKDSSSVVEWTQAPKERGHRGSEHLNSYEAEWDMVNTVSFKRKPHTNGDAPSHRNGKSKWSFLFSLTDLKSIKQNKEGMGWSYLVFCLKDDVVLPALHFHQGDSKLLIESLEKYVVLCESPQDKRTLLVNCQNKSLSQSFENLLDEPAYGLIQAGLLDRRKLLWAIHHWKKIKKDPYTATMIGFSKVTNYIFDSLRGSDPSTHQRPPSEMADFLSDAIPGLKINQQEEPGFEVITRIDLGERPVVQRREPVSLEEWTKNIDSEGRILNVDNMKQMIFRGGLSHALRKQAWKFLLGYFPWDSTKEERTQLQKQKTDEYFRMKLQWKSISQEQEKRNSRLRDYRSLIEKDVNRTDRTNKFYEGQDNPGLILLHDILMTYCMYDFDLGYVQGMSDLLSPLLYVMENEVDAFWCFASYMDQMHQNFEEQMQGMKTQLIQLSTLLRLLDSGFCSYLESQDSGYLYFCFRWLLIRFKREFSFLDILRLWEVMWTELPCTNFHLLLCCAILESEKQQIMEKHYGFNEILKHINELSMKIDVEDILCKAEAISLQMVKCKELPQAVCEILGLQGSEVTTPDSDVGEDENVVMTPCPTSAFQSNALPTLSASGARNDSPTQIPVSSDVCRLTPA
For the molecule B1, the binding result is listed as “binds”.
